Laboratory results as given in PMC6956814, “Deubiquitinase USP28 inhibits ubiquitin ligase KLHL2-mediated uridine-cytidine kinase 1 degradation and confers sensitivity to 5'-azacytidine-resistant human leukemia cells” (Theranostics, 2020).

Target: T1, Flag-tagged UCK1 (uridine-cytidine kinase 1) (human) (UniProt Q9HA47)
T1 sequence: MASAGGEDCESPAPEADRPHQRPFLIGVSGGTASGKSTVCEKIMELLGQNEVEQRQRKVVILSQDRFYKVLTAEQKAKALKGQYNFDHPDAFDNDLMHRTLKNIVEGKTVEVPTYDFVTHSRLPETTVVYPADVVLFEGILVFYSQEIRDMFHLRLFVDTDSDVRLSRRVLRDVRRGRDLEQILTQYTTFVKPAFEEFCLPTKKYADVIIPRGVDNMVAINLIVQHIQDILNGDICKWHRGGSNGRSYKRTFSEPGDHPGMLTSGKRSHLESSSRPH
Test: affinity purification with mass spectrometry; Flag-tagged UCK1 expressed in HEK293T (methods: HEK293) cells, purified with an anti-Flag antibody, MS/MS

binding: binds
B1: KLHL2 (Kelch Like Family Member 2), endogenous (protein, UniProt O95198 1-593)
chain: METPPLPPACTKQGHQKPLDSKDDNTEKHCPVTVNPWHMKKAFKVMNELRSQNLLCDVTIVAEDMEISAHRVVLAACSPYFHAMFTGEMSESRAKRVRIKEVDGWTLRMLIDYVYTAEIQVTEENVQVLLPAAGLLQLQDVKKTCCEFLESQLHPVNCLGIRAFADMHACTDLLNKANTYAEQHFADVVLSEEFLNLGIEQVCSLISSDKLTISSEEKVFEAVIAWVNHDKDVRQEFMARLMEHVRLPLLPREYLVQRVEEEALVKNSSACKDYLIEAMKYHLLPTEQRILMKSVRTRLRTPMNLPKLMVVVGGQAPKAIRSVECYDFKEERWHQVAELPSRRCRAGMVYMAGLVFAVGGFNGSLRVRTVDSYDPVKDQWTSVANMRDRRSTLGAAVLNGLLYAVGGFDGSTGLSSVEAYNIKSNEWFHVAPMNTRRSSVGVGVVGGLLYAVGGYDGASRQCLSTVECYNATTNEWTYIAEMSTRRSGAGVGVLNNLLYAVGGHDGPLVRKSVEVYDPTTNAWRQVADMNMCRRNAGVCAVNGLLYVVGGDDGSCNLASVEYYNPTTDKWTVVSSCMSTGRSYAGVTVIDKPL

No constants are given. Whether binding was seen depends on the method and setting. In cells and extracts the contact can be indirect. These calls come from enrichment with a bait or labelling near it, and not all partners need be listed. Tags and fused reporters may be left off the sequences shown.
